According to the supplement of paper PMC10849652:
This is one part of the list. Residues, ends and D or L forms follow the SMILES beside them. *: point of attachment. Cbz = O=C(OCc1ccccc1)*

By UniProt entry, the sequences of proteins in these tests, tags left out. Where a name states a change or a piece, a line headed by the entry shows the natural chain unless it says otherwise.
UniProt Q99729: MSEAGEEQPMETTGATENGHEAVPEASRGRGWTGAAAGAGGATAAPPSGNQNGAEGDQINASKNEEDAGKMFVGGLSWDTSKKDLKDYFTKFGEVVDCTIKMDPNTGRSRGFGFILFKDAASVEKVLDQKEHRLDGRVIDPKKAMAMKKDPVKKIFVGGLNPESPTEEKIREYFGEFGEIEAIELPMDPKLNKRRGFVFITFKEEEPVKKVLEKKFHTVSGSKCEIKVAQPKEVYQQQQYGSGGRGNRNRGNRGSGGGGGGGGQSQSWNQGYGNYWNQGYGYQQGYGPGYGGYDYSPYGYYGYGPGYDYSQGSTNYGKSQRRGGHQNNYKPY
UniProt P19367: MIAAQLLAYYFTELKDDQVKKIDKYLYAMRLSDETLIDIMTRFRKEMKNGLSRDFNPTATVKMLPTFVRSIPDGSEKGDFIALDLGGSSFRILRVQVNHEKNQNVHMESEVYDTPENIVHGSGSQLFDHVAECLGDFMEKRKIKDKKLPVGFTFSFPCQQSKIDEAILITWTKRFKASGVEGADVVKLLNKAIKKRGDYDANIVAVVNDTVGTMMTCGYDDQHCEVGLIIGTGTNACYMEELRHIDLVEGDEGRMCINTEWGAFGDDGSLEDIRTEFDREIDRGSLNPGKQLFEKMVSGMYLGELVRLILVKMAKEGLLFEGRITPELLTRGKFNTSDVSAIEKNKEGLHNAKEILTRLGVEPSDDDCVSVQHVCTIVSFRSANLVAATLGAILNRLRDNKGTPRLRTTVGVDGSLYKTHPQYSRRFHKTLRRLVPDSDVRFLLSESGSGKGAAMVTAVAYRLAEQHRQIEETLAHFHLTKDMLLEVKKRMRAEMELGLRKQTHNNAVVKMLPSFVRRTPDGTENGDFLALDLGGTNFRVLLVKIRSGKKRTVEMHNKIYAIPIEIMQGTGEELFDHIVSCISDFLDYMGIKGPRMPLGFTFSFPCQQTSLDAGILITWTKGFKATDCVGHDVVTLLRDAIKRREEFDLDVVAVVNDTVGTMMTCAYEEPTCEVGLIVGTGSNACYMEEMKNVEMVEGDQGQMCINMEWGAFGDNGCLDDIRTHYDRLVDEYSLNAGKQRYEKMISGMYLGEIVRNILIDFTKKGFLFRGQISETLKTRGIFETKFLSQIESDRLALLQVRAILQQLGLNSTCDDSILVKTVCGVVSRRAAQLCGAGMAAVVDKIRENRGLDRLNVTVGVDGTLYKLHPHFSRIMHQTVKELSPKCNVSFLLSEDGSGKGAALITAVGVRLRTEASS
UniProt P17066, whole entry, looked up: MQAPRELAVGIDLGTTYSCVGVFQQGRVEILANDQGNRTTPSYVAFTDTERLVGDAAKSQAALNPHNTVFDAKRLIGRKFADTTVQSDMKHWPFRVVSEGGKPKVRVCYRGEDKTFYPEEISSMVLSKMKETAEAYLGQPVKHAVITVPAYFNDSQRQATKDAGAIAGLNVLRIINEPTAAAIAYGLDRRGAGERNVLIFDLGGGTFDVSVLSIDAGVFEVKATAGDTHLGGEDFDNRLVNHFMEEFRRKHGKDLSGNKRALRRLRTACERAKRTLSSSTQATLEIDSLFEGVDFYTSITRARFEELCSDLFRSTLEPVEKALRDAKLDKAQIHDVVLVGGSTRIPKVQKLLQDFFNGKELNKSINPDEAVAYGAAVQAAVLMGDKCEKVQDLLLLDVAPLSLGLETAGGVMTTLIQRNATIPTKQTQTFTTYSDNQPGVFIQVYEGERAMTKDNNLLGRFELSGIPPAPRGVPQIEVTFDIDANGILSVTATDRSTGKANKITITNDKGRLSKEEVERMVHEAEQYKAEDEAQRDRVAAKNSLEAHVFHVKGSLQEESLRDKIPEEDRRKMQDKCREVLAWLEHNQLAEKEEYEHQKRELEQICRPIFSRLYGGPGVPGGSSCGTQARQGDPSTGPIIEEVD
UniProt P0DMV8, whole entry, looked up: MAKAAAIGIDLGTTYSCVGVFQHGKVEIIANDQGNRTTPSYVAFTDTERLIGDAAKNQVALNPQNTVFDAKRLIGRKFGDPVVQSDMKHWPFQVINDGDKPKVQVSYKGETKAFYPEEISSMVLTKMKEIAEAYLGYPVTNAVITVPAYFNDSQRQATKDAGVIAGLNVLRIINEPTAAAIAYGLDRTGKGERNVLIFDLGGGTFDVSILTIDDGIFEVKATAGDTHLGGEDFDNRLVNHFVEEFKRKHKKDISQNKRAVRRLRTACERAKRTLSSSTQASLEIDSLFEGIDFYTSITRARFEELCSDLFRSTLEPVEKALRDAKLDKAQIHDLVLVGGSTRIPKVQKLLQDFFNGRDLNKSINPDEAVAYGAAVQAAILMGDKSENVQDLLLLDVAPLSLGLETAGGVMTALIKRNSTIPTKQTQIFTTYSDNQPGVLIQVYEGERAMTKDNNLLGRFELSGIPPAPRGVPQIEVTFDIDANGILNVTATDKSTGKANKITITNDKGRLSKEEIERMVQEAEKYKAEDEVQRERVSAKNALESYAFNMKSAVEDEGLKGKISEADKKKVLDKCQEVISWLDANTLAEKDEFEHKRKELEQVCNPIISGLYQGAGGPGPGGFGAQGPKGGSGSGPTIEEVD
UniProt P56937: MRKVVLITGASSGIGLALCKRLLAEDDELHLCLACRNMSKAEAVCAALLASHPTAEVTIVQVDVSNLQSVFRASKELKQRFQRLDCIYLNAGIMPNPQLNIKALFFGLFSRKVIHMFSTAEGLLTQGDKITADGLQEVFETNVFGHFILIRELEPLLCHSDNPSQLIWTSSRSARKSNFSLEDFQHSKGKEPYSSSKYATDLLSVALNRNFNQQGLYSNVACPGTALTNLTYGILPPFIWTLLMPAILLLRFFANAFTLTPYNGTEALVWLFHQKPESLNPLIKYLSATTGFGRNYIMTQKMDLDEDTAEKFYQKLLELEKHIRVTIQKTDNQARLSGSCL
UniProt P61604, whole entry, looked up: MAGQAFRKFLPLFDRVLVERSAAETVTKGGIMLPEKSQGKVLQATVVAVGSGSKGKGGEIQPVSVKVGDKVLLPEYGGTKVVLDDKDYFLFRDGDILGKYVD
UniProt Q14773: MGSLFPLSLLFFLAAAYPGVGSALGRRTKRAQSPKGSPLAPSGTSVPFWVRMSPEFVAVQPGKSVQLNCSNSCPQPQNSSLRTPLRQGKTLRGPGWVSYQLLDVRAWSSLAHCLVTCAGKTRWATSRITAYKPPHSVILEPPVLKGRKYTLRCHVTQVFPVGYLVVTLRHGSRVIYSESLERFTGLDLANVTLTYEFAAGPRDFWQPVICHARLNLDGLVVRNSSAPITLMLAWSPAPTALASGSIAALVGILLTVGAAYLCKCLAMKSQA
UniProt O95757: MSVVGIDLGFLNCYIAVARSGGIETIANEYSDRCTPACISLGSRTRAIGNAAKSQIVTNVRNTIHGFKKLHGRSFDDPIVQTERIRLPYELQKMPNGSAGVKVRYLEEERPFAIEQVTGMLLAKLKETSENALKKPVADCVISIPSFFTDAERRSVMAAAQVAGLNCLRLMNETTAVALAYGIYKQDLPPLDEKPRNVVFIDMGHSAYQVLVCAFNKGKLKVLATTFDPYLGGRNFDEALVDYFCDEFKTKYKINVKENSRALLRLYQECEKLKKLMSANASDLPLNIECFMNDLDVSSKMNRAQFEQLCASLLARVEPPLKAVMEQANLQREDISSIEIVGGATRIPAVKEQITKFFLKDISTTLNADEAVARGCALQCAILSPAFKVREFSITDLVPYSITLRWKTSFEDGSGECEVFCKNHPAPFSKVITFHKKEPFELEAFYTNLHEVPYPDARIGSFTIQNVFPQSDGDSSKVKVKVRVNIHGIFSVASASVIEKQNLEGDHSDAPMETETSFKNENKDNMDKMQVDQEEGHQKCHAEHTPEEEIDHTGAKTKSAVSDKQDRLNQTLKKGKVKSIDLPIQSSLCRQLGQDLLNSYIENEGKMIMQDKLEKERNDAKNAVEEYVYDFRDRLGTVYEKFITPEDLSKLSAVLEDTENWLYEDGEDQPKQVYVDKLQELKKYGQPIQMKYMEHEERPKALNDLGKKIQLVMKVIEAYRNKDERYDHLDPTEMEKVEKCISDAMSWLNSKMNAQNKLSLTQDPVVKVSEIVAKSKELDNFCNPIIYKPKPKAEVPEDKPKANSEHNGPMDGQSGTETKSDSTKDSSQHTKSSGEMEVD
UniProt P22626: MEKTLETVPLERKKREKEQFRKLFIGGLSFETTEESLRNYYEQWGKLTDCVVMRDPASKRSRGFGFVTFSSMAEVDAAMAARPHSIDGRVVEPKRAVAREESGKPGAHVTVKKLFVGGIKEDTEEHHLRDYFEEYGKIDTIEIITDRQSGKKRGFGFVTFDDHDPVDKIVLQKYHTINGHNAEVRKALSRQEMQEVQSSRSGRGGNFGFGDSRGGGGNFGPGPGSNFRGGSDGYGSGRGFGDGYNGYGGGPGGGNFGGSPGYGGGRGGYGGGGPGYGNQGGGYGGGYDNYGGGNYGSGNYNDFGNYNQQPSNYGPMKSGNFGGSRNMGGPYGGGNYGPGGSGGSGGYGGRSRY
UniProt Q58FG1, whole entry, looked up: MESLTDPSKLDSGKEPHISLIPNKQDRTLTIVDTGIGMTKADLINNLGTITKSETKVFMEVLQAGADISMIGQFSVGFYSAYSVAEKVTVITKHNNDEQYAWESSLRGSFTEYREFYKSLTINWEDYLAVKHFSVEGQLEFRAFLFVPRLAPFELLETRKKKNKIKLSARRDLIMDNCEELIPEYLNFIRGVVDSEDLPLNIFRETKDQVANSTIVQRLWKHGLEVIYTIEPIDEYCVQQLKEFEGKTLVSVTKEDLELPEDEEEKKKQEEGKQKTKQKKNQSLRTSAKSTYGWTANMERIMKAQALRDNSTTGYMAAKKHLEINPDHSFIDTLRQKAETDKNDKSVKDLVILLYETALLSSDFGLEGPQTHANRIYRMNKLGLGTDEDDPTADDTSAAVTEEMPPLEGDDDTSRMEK
UniProt Q92598: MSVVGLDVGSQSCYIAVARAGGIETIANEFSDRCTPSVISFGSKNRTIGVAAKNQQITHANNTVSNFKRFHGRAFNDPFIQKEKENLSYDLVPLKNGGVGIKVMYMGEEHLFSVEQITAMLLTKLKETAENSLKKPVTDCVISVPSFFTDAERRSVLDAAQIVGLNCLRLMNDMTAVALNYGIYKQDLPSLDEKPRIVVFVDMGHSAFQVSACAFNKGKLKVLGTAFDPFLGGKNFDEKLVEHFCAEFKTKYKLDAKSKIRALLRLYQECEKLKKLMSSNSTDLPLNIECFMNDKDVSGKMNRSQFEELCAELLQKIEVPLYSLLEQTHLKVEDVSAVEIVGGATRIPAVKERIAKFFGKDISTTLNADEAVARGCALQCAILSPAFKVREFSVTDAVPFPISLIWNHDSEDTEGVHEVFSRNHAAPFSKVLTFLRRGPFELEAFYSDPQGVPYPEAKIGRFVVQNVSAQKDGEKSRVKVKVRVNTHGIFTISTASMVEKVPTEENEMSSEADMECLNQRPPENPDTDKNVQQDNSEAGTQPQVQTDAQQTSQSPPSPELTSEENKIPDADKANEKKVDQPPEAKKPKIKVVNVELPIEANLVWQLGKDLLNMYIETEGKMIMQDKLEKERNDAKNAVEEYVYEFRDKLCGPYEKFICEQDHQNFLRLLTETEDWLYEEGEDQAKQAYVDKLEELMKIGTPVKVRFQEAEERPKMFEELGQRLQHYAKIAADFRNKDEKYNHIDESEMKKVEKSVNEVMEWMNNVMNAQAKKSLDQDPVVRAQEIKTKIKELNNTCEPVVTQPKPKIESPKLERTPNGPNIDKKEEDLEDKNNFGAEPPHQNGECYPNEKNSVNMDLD
UniProt P14625, whole entry, looked up: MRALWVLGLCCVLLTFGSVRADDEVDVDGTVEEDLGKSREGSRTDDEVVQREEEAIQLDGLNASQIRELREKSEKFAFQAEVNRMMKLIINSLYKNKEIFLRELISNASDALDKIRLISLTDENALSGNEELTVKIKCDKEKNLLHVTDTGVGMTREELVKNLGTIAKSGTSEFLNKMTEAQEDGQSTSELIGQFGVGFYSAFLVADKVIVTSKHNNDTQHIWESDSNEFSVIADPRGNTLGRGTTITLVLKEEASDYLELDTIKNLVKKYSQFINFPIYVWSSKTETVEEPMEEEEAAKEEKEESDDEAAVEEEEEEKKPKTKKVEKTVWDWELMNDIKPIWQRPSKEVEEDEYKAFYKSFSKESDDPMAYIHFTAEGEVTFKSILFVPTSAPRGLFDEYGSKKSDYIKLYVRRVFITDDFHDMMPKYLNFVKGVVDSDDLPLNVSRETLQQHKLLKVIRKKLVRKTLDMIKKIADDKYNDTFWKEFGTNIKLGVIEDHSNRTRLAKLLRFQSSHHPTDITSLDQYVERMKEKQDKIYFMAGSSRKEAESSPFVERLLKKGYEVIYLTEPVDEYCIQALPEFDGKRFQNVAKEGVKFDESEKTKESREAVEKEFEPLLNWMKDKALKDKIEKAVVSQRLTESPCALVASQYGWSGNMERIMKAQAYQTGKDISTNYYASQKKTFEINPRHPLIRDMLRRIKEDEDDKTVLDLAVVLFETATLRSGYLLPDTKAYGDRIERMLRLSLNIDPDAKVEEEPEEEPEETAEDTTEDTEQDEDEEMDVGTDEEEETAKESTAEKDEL

How the values were obtained:
Test in all cases: log2 fold change, soluble protein after heating vs DMSO (PISA); higher = thermal stabilisation; K562 cells, 10 uM, 30 min; active = over 0.2 and 3.5 SD of the protein, either way, in both replicates (recomputed)
IRAK-1-4 Inhibitor I = compound: C1COCCN1CCN2C3=CC=CC=C3N=C2NC(=O)C4=CC(=CC=C4)[N+](=O)[O-] [IRAK-1-4 Inhibitor I]
Outline: (§1)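 Thermal stability values are relative to control samples and come from duplicates. They are expressed as log2 fold changes. For measurement, K562 cells (2×10^6 cells/mL) received 10 μM compound for 30 min, and aliquots were heated for 3 min over 48°C-58°C, pooled, and extracted at 4°C in PBS with 0.5% NP-40. Soluble protein, the supernatant after 21,000xg for 90 min, was quantified by TMTpro 16plex LC-MS/MS with equalised channel sums.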

ibrutinib = compound: C=CC(=O)N1CCC[C@@H](n2nc(-c3ccc(Oc4ccccc4)cc3)c3c(N)ncnc32)C1 [ibrutinib]
Outline: as §1

[1] = compound: CC(=O)c1cnc2ccc(-c3cc(Cl)c(O)c(Cl)c3)nc2c1N[C@H]1CC[C@H](CN(C)C)CC1
Outline: as §1

ralimetinib = compound: CC(C)(C)Cn1c(N)nc2ccc(-c3[nH]c(C(C)(C)C)nc3-c3ccc(F)cc3)nc21 [ralimetinib]
Outline: as §1

[2] = compound: CC(C)(O)CC(=O)NCCn1ccc2ncnc(Nc3ccc(Oc4cccc(C(F)(F)F)c4)c(Cl)c3)c21
Outline: as §1

[3] = compound: CC(C)C1=C2N=C(C=C(N2N=C1)NCC3=CC=CC=C3)NCCCCCCN
Outline: as §1

[4] = compound: CC(C)C[C@@H](C=O)NC(=O)[C@H](CC(C)C)NC(=O)[C@H](CC(C)C)NC(=O)OCc1ccccc1
Outline: as §1

pinometostat = compound: CC(C)N(C[C@H]1O[C@@H](n2cnc3c(N)ncnc32)[C@H](O)[C@@H]1O)[C@H]1C[C@@H](CCc2nc3cc(C(C)(C)C)ccc3[nH]2)C1 [pinometostat]
Outline: as §1

[5] = compound: CC1=C(C(CC(=O)N1)C2=CC=C(C=C2)C(F)(F)F)C(=O)NC3=C(C=C4C(=C3)C=NN4)F
Outline: as §1

[6] = compound: CC1=C(C2=C(C=C1)C(=O)C3=CC=CC=C3N2CCCN)C
Outline: as §1

[7] = compound: CC1=C(C=C(C=C1)NC(=O)C2=CC(=CC=C2)C(C)(C)C#N)NC3=CC4=C(C=C3)N=CN(C4=O)C
Outline: as §1

[8] = compound: CC1=C(C=C(C=C1)NC(=O)C2=CC(=CC=C2)N(C)C)NC(=O)C3=CC=C(C=C3)O
Outline: as §1

[9] = compound: CC1=CC=C(C=C1)SC2=C3C=C(SC3=CN=C2)C(=O)N
Outline: as §1

[10] = compound: CC1=NC(=CC=C1)C2=C(N=C(N2)C(C)(C)C)C3=CC4=NC=CN=C4C=C3
Outline: as §1

Nexturastat A = compound: CCCCN(Cc1ccc(C(=O)NO)cc1)C(=O)Nc1ccccc1 [Nexturastat A]
Outline: as §1

vemurafenib = compound: CCCS(=O)(=O)Nc1ccc(F)c(C(=O)c2c[nH]c3ncc(-c4ccc(Cl)cc4)cc23)c1F [vemurafenib]
Outline: as §1

[11] = compound: CCCS(=O)(=O)Nc1ccc(F)c(C(=O)c2c[nH]c3ncc(Cl)cc23)c1F
Outline: as §1

[12] = compound: CCCc1cc(C)[nH]c(=O)c1CNC(=O)c1cc(-c2ccnc(N3CCN(C)CC3)c2)cc2c1cnn2C(C)C
Outline: as §1

givinostat = compound: CCN(CC)Cc1ccc2cc(COC(=O)Nc3ccc(C(=O)NO)cc3)ccc2c1 [givinostat]
Outline: as §1

barasertib = compound: CCN(CCCOc1ccc2c(Nc3cc(CC(=O)Nc4cccc(F)c4)[nH]n3)ncnc2c1)CCOP(=O)(O)O [barasertib]
Outline: as §1

Measured: log2 fold change

HNRNPAB isoform 3 (UniProt Q99729)
inactive: IRAK-1-4 Inhibitor I -0.056 | ibrutinib 0.027 | [1] 0.099 | ralimetinib 0.026 | [2] 0.115 | [3] 0.169 | [4] 0.04 | pinometostat 0.036 | [5] 0.009 | [6] -0.037 | [7] -0.001 | [8] 0.01 | [9] -0.148 | [10] -0.074 | Nexturastat A 0.138 | vemurafenib -0.084 | [11] -0.142 | [12] -0.019 | givinostat -0.069 | barasertib -0.105

HK1 isoform 2 (UniProt P19367)
inactive: IRAK-1-4 Inhibitor I -0.008 | ibrutinib -0.007 | [1] -0.006 | ralimetinib -0.066 | [2] -0.034 | [3] 0.026 | [4] -0.033 | pinometostat -0.054 | [5] 0.02 | [6] 0.03 | [7] -0.035 | [8] -0.003 | [9] 0.015 | [10] 0.032 | Nexturastat A -0.095 | vemurafenib -0.022 | [11] -0.007 | [12] -0.03 | givinostat -0.005 | barasertib 0.003

HSPA6 (UniProt P17066)
inactive: IRAK-1-4 Inhibitor I 0.005 | ibrutinib 0.035 | [1] 0.033 | ralimetinib 0 | [2] 0.034 | [3] 0.036 | [4] -0.056 | pinometostat -0.046 | [5] 0.04 | [6] -0.014 | [7] -0.027 | [8] 0 | [9] -0.053 | [10] 0.01 | Nexturastat A 0.018 | vemurafenib -0.018 | [11] -0.041 | [12] -0.035 | givinostat -0.092 | barasertib -0.006

HSPA1A (UniProt P0DMV8)
inactive: IRAK-1-4 Inhibitor I 0.06 | ibrutinib 0.006 | [1] 0 | ralimetinib 0.054 | [2] 0.068 | [3] 0.063 | [4] -0.029 | pinometostat -0.024 | [5] 0.026 | [6] -0.018 | [7] -0.008 | [8] -0.002 | [9] -0.07 | [10] 0.005 | Nexturastat A 0.008 | vemurafenib 0.007 | [11] -0.079 | [12] 0.221 | givinostat -0.036 | barasertib 0.034

HINT3 (UniProt Q9NQE9)
inactive: IRAK-1-4 Inhibitor I 0.071 | ibrutinib 0.002 | [1] -0.023 | ralimetinib -0.102 | [2] 0.013 | [3] 0.017 | [4] 0.021 | pinometostat -0.003 | [5] -0.03 | [6] 0.005 | [7] 0.021 | [8] 0.021 | [9] 0.02 | [10] 0.024 | Nexturastat A 0.02 | vemurafenib 0.02 | [11] 0.01 | [12] 0.044 | givinostat 0.046 | barasertib 0.008

HSD17B7 (UniProt P56937)
inactive: IRAK-1-4 Inhibitor I -0.011 | ibrutinib 0.039 | [1] -0.035 | ralimetinib -0.029 | [2] -0.047 | [3] -0.177 | [4] -0.085 | pinometostat -0.039 | [5] -0.005 | [6] 0.047 | [7] -0.021 | [8] -0.004 | [9] 0.047 | [10] 0.092 | Nexturastat A -0.128 | vemurafenib 0.056 | [11] 0.099 | [12] -0.06 | givinostat -0.021 | barasertib 0.07

HOXB9 (UniProt P17482)
inactive: IRAK-1-4 Inhibitor I -0.013 | ibrutinib -0.015 | [1] -0.016 | ralimetinib 0.195 | [2] -0.166 | [3] -0.152 | [4] 0.024 | pinometostat 0.074 | [5] -0.017 | [6] -0.24 | [7] 0.083 | [8] -0.083 | [9] 0.042 | [10] -0.03 | Nexturastat A -0.049 | vemurafenib -0.076 | [11] 0.044 | [12] 0.059 | givinostat -0.05 | barasertib 0.106

HGS (UniProt O14964)
inactive: IRAK-1-4 Inhibitor I 0.002 | ibrutinib -0.011 | [1] -0.014 | ralimetinib -0.002 | [2] -0.05 | [3] -0.078 | [4] -0.015 | pinometostat -0.022 | [5] -0.001 | [6] 0.017 | [7] 0.014 | [8] -0.009 | [9] 0.008 | [10] 0.022 | Nexturastat A -0.045 | vemurafenib 0.01 | [11] 0.033 | [12] -0.032 | givinostat -0.011 | barasertib 0.018

HYOU1 (UniProt Q9Y4L1)
inactive: IRAK-1-4 Inhibitor I -0.04 | ibrutinib -0.033 | [1] 0 | ralimetinib 0.037 | [2] 0.015 | [3] -0.023 | [4] -0.011 | pinometostat 0.017 | [5] 0.028 | [6] -0.017 | [7] 0.003 | [8] -0.011 | [9] 0.015 | [10] -0.03 | Nexturastat A 0.03 | vemurafenib -0.018 | [11] -0.08 | [12] 0.048 | givinostat 0.025 | barasertib -0.011

HSPE1 (UniProt P61604)
inactive: IRAK-1-4 Inhibitor I 0.035 | ibrutinib -0.019 | [1] -0.01 | ralimetinib -0.05 | [2] 0.033 | [3] 0.077 | [4] 0.014 | pinometostat -0.054 | [5] 0.024 | [6] 0.076 | [7] -0.024 | [8] -0.024 | [9] 0.019 | [10] -0.015 | Nexturastat A -0.07 | vemurafenib -0.053 | [11] -0.068 | [12] -0.03 | givinostat -0.06 | barasertib 0.016

Taken from above (two entries):
HSPA6 (UniProt P17066)
inactive: IRAK-1-4 Inhibitor I 0.005 | ibrutinib 0.035 | [1] 0.033 | ralimetinib 0 | [2] 0.034 | [3] 0.036 | [4] -0.056 | pinometostat -0.046 | [5] 0.04 | [6] -0.014 | [7] -0.027 | [8] 0 | [9] -0.053 | [10] 0.01 | Nexturastat A 0.018 | vemurafenib -0.018 | [11] -0.041 | [12] -0.035 | givinostat -0.092 | barasertib -0.006

HSPA1A (UniProt P0DMV8)
inactive: IRAK-1-4 Inhibitor I 0.06 | ibrutinib 0.006 | [1] 0 | ralimetinib 0.054 | [2] 0.068 | [3] 0.063 | [4] -0.029 | pinometostat -0.024 | [5] 0.026 | [6] -0.018 | [7] -0.008 | [8] -0.002 | [9] -0.07 | [10] 0.005 | Nexturastat A 0.008 | vemurafenib 0.007 | [11] -0.079 | [12] 0.221 | givinostat -0.036 | barasertib 0.034

Next results.

ICAM4 (UniProt Q14773)
inactive: IRAK-1-4 Inhibitor I -0.035 | ibrutinib 0.026 | [1] -0.022 | ralimetinib -0.063 | [2] 0.043 | [3] 0.036 | [4] 0.054 | pinometostat 0.03 | [5] 0.056 | [6] -0.019 | [7] 0.016 | [8] 0 | [9] 0.002 | [10] -0.042 | Nexturastat A -0.038 | vemurafenib 0.097 | [11] -0.06 | [12] -0.014 | givinostat -0.046 | barasertib 0.02

HSPA4L (UniProt O95757)
inactive: IRAK-1-4 Inhibitor I 0.05 | ibrutinib -0.01 | [1] 0.02 | ralimetinib -0.009 | [2] -0.037 | [3] 0.014 | [4] 0.003 | pinometostat -0.003 | [5] -0.012 | [6] 0.015 | [7] 0 | [8] -0.013 | [9] -0.017 | [10] 0.006 | Nexturastat A -0.066 | vemurafenib 0.019 | [11] 0.007 | [12] -0.001 | givinostat -0.022 | barasertib 0.022

HNRNPA2B1 (UniProt P22626)
inactive: IRAK-1-4 Inhibitor I -0.15 | ibrutinib 0.082 | [1] 0.204 | ralimetinib 0.171 | [2] 0.217 | [3] 0.164 | [4] 0.176 | pinometostat 0.19 | [5] 0.025 | [6] -0.031 | [7] 0.051 | [8] 0.072 | [9] -0.151 | [10] -0.1 | Nexturastat A 0.256 | vemurafenib -0.031 | [11] -0.037 | [12] 0.035 | givinostat 0.036 | barasertib -0.16

HSP90AA4P (UniProt Q58FG1)
inactive: IRAK-1-4 Inhibitor I -0.037 | ibrutinib -0.036 | [1] -0.055 | ralimetinib -0.026 | [2] -0.009 | [3] -0.036 | [4] 0.103 | pinometostat 0.033 | [5] 0 | [6] -0.025 | [7] -0.126 | [8] 0.002 | [9] -0.21 | [10] -0.039 | Nexturastat A 0.014 | vemurafenib -0.207 | [11] -0.121 | [12] -0.258 | givinostat 0.038 | barasertib 0.106

HSPH1 (UniProt Q92598)
inactive: IRAK-1-4 Inhibitor I -0.008 | ibrutinib 0.002 | [1] 0.029 | ralimetinib 0.014 | [2] -0.02 | [3] -0.043 | [4] -0.065 | pinometostat -0.018 | [5] 0.049 | [6] 0.003 | [7] 0.025 | [8] -0.063 | [9] -0.002 | [10] 0.045 | Nexturastat A 0.033 | vemurafenib 0.028 | [11] 0.032 | [12] 0.025 | givinostat 0.003 | barasertib 0.053

HSP90B1 (UniProt P14625)
inactive: IRAK-1-4 Inhibitor I 0.033 | ibrutinib -0.01 | [1] -0.023 | ralimetinib -0.037 | [2] -0.013 | [3] 0.005 | [4] -0.009 | pinometostat -0.022 | [5] 0.019 | [6] -0.032 | [7] -0.029 | [8] -0.001 | [9] 0.007 | [10] -0.004 | Nexturastat A -0.039 | vemurafenib 0.006 | [11] -0.006 | [12] 0.084 | givinostat -0.008 | barasertib 0.006
